The values below come from PMC5770620.

Chains of the proteins cited; added tags and fusions are not shown. Lines headed by an entry give the natural chain unless they say otherwise; changes in a name come on top.
UniProt A6T5D4: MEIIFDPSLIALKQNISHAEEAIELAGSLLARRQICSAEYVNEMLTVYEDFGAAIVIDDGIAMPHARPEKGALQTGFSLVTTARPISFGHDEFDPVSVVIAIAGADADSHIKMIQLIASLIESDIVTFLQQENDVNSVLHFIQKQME

No constants are given. Whether binding was seen depends on the method and setting. In cells and extracts the contact can be indirect. A result given as binding can be weak or reduced; the word gives no strength. Tags and fused reporters may be left off the sequences shown.

This experiment deals with T1, GST-tagged GlpK of K. pneumoniae MGH 78578 (KPN04011) (Klebsiella pneumoniae MGH 78578) (UniProt A6TFR2).
T1 sequence: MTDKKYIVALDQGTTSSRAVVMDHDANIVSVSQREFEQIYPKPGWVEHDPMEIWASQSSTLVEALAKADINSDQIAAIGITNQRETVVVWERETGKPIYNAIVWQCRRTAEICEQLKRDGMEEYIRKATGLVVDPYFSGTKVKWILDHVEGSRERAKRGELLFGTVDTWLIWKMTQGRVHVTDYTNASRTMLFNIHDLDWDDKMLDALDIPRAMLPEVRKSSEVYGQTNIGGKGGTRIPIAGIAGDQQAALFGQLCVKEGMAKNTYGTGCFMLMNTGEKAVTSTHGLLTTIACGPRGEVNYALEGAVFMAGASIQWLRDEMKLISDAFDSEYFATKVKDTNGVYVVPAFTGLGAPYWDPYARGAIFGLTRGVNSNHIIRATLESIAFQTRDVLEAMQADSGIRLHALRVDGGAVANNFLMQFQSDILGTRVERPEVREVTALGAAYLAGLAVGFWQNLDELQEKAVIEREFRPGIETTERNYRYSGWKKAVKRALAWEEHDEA
In words: pull-down; supernatant of E. coli lysate with GST-KpGlpK (or GST) mixed with supernatant with His-tagged protein in STE buffer (10 mM Tris-HCl pH 8.0, 150 mM NaCl, 1 mM EDTA, 1% Triton X-100, 1 mM DTT), 4°C 1 h; captured on glutathione-Sepharose beads, washed with PBS pH 7.4; Western blot with anti-His or anti-GST. Background: In western blotting, separated proteins are transferred to a membrane and probed.

As for “His-tagged KPN00353 (wild type) (from UniProt A6T5D4)”, the binding entry was “binds”.
